Among all 31,000 sequences or so, about 1,400 (4.5%) were called active.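 How the source made its calls: active means median seed-adjusted z-score above 1 or below -1; inactive means the rest.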 The list shows a part of the results.
assay: Novel Modifiers of Survival Motor Neuron (SMN) Protein: Gene Identification via Genome-wide siRNA Screen; details: HEK293T SMN2-luciferase reporter, siRNA knockdown, 72 h; actives lie on both sides;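 further: luminescence tracks full-length SMN protein made from the SMN2 reporter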
Procedure, shortened: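 Each of three siRNAs per gene is reverse-transfected (1 pmol) into reporter HEK293T cells whose luciferase output tracks SMN protein level. After 72 h culture, ONE-Glo luminescence is control-normalized, log10-transformed and MAD-standardized; Common Seed Analysis deprioritizes seed-driven hits.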

Row | Sequence | median seed-adjusted z-score
1 | GAAGAACGCAUGAAACGAATT against KCNH1 | inactive: -0.0859
2 | GUUUGUAACAGAUAUCGAUTT against CDK6 | inactive: 0
3 | GCCCAGGACUCAGACAAGATT against CTDSP1 | inactive: 0.28
4 | GGAAGAAACGGAGACUCAATT against DPF1 | inactive: 0.144
5 | GGCUAAGCUAUGUCAAUAATT against MTMR9 | inactive: 0.133
6 | AGGUUCAGCUGACUGGAAATT against SDSL | inactive: 0
7 | AUAUGUACAUAUUCUCAUATT against THAP1 | inactive: 0.139
8 | CGUGAUUUCUUGGUGCAGATT against TBC1D9B | inactive: -0.906
9 | GCCCGAAUGACAGUCCUUATT against UBE2D4 | inactive: 0.232
10 | GCAGGUCUCGGGAGAAUGATT against SLC12A3 | inactive: -0.891
11 | GGAGUUACCGGUGCAGAUATT against FUT2 | inactive: -0.878
12 | GCGAUUCACAUGUAGCUUUTT against NR2C1 | inactive: 0.386
13 | GGUUUGAUUUUGAUAGCGATT against XPO5 | inactive: -0.031
14 | CCUCAAUUUUUGUCUCAGATT against RASSF1 | inactive: -0.719
15 | CAAAGAUUCUGACUGAUGATT against GPATCH4 | inactive: -0.519
16 | GCUUCUGCAUCAAUCGCAATT against MFNG | inactive: 0.377
17 | CCAAUGUCUUCAUAGCUGATT against DUSP27 | inactive: -0.162
18 | AAGCAGCUAUGGGAUUCAATT against SERPINE1 | inactive: 0.18
19 | GGAAAUCUACGGGACCAUATT against PRMT8 | inactive: 0
20 | CUAUCACUGCAAAGAUUUATT against KLRC1 | inactive: 0.171
21 | GAACUACCCUGGUUCAAAATT against GNA15 | inactive: 0.582
22 | CCACGAAAGUAUGAUGCAATT against NUFIP1 | inactive: -0.673

Two entries from above, with each value named:
GGAGUUACCGGUGCAGAUATT against FUT2
  median seed-adjusted z-score: inactive: -0.878
GAACUACCCUGGUUCAAAATT against GNA15
  median seed-adjusted z-score: inactive: 0.582

Remaining list, next part.

Row | Sequence | median seed-adjusted z-score
23 | GGAUAUUGCUCCUUCGUAUTT against SLC17A5 | inactive: -0.354
24 | CCUGCAAGCUGUCAACUUUTT against PRKACA | inactive: -0.137
25 | AGAGAACAGUGCAGAAAAATT against NR4A3 | inactive: -0.205
26 | GGAUUUCUCUGGACAAGAUTT against UTS2 | inactive: 0.0487
27 | CUACGAUCAUUGUUAAAAUTT against QDPR | inactive: -0.734
28 | CGACGGCUGUCAUCAGUUATT against ADCK1 | inactive: -0.177
29 | CGACGACGUGCAAGACCAATT against ZNF787 | inactive: -0.0628
30 | GGAGCGGGAUAUGACAUAATT against MMAA | inactive: -0.664
31 | CGGGCGUAGUGAUGAGCUUTT against SLC29A4 | inactive: 0.0192
32 | GAUUCUUGACAAGAAAUUUTT against PSMD11 | inactive: -0.156
33 | GCUUUGCCGUCGGACCAAATT against PKP1 | inactive: -0.99
34 | GGCCUAAUGGGUUAGCUAUTT against LRP4 | inactive: -0.00798
35 | GAGCAAUAGAGAUAUCGAUTT against YOD1 | inactive: 0.216
36 | UGACCUAUUUGACCAGAUUTT against MOGAT2 | inactive: -0.319
37 | CAUUUAUGACAAUCGGAUATT against OGT | inactive: 0.411
38 | GCAGGAAAGUUUACACCAATT against KLF6 | inactive: -0.0398
39 | GCAAUAUUGUCCAGAUGAATT against PSMB2 | inactive: 0
40 | CAAGAGUCUCUUUAAGGAATT against ACTL8 | inactive: 0
41 | GGAAGAUCUACAUCCGGAATT against KCNQ1 | inactive: -0.0525
42 | CCAAUGCCCUCAUGGUUAATT against MORC1 | inactive: -0.719
43 | GGAUACCGACAAAUCAGAATT against STK17A | inactive: 0
44 | CAUCAAAUAUGACAACUUUTT against GALNTL4 | inactive: 0

Row | Sequence | median seed-adjusted z-score
45 | GAGUGUGUGCGAAACCUAATT against COMTD1 | inactive: 0.0487
46 | GAAAGAUUGUGGACAGCAATT against CACNA1G | inactive: 0.436
47 | CUAUACUCUUCGCUCCUAUTT against SIGMAR1 | active: -1.4
48 | ACAUUUAGGUUGUAAACCATT against PLA2G12A | inactive: 0.139
49 | CCAAGUAUCUGGUGGUGAATT against NDUFV1 | inactive: -0.653
50 | GACAUUGACAGGUAUAAGATT against GPD2 | inactive: 0.0606
51 | GACACGCAAUGGAAGCCUATT against ZDHHC5 | inactive: -0.307
52 | AGUUCUGCCGGGCAUCCUATT against IL27RA | inactive: 0.887
53 | GGAUCUUCACCCGAAUACATT against CDH13 | inactive: 0
54 | GGUUUGAGGUUGGACUCCATT against ZP3 | inactive: 0.495
55 | CCUCAUACCAAGAAGAUAATT against TMPRSS12 | inactive: 0.0961
56 | GAAUGCAGCAUGUAAAGAATT against GALNT11 | inactive: -0.259
57 | AGCUGGUGGUGGGUCAUGATT against ISG20 | inactive: 0.0209
58 | CCAACUCAUCGAACACCUUTT against ART5 | inactive: -0.354
59 | GUGCUUUGGUGGUACUAUUTT against ELOVL2 | inactive: -0.456
60 | GCCUCUAAGAGCUGAGAGATT against PRSS33 | inactive: -0.588
61 | GGAAGAAGCACAUCUAUAUTT against GOT1L1 | inactive: -0.277
62 | GGUUUGGAGCGAGAGUGGATT against ASB10 | inactive: 0
63 | GAACGAGGAGAGAAUUAUATT against IFT140 | inactive: -0.0152
64 | GGUGAAUAUUUAUCGUCUATT against CHD1 | active: -1.03
65 | GGAAUAGACUUAGAUCGAATT against RAD50 | inactive: 0.266
66 | CAUCGAAAGGUGUCUGGAATT against POLRMT | inactive: 0.0812

Some values from above:
In median seed-adjusted z-score, GGUGAAUAUUUAUCGUCUATT against CHD1 shows active: -1.03
In median seed-adjusted z-score, GGUUUGAGGUUGGACUCCATT against ZP3 shows inactive: 0.495

A second format for some results above:
Row	Sequence	median seed-adjusted z-score
29	CGACGACGUGCAAGACCAATT against ZNF787	inactive: -0.0628
30	GGAGCGGGAUAUGACAUAATT against MMAA	inactive: -0.664

Following part.

Row | Sequence | median seed-adjusted z-score
67 | ACAACUACAUGAUCUGGAATT against ECE1 | inactive: -0.344
68 | AGGUAUUUUGGAUCCCGGATT against SEMA3B | inactive: 0.000251
69 | GGAUUGAGGUGGAGAUGGATT against MCM5 | inactive: 0.126
70 | GUGUCGUCUUUUUAAUUUUTT against UBE2C | inactive: 0
71 | GGAAGUGAAUGAUGAGAAATT against ESX1 | inactive: 0.275
72 | CGUGCACUUUUAUGCAAAUTT against MAP3K7IP1 | inactive: 0
73 | GCUGCUAUCAGUGAACGGATT against LIN7A | active: -1.39
74 | CAACGAUGCUAGAAGAAUUTT against PCOLCE2 | active: -1.15
75 | GAAGAUUGCUCGUGAUGAATT against SLC25A5 | inactive: -0.0501
76 | AGCUACAACUUGAGCCUCATT against LDB3 | inactive: 0
77 | GGGCACCUACAUCUACUUUTT against CNOT3 | inactive: 0.872
78 | GGAUUUUAUAGGAAGACGATT against TNFRSF19 | inactive: -0.672
79 | ACACUAUGCAAAUCCUGGATT against SOLH | inactive: -0.791
80 | GAAACUAGGAAAUUAGUGATT against SIM2 | inactive: -0.19
81 | GAACCUUGGUUUUCAACUUTT against TBC1D5 | inactive: 0.38
82 | GUUUCACAGUGGAACUUCATT against ITGA5 | inactive: 0.915
83 | GGACAUCCUCGGAAAGUAUTT against ABLIM1 | inactive: 0.115
84 | GGAUCUGACAGUUCCAGAATT against CLDN20 | inactive: -0.00173
85 | AGACCUGCGUGGUGCACUATT against FKBP1A | inactive: 0.113
86 | GGGUCGACCUAUUUCCGAATT against DYSF | inactive: -0.23
87 | GCUUAAACAUUUAUCACUUTT against GC | inactive: 0.14
88 | CUAUCUCAGCUACAAGUUUTT against FZD2 | inactive: -0.0134

Row | Sequence | median seed-adjusted z-score
89 | CACUGAACGAGCUCCCAAATT against THPO | inactive: -0.0366
90 | CAAUCUAUGCUGAUUAUAUTT against ZMPSTE24 | inactive: -0.633
91 | CCGAAGAGUUCAUACCGGATT against ZNF256 | inactive: 0.00739
92 | CGAAAGGAGUUUGUCUUCUTT against FOXF1 | inactive: -0.148
93 | CCGGCUUCCUCAUUACCUUTT against SLC2A14 | active: -1.09
94 | AGUUCAACGCGGUGCCCUUTT against RXFP3 | inactive: -0.0651
95 | GGAGGGCUGCUAAAAUGAUTT against HNF1B | inactive: -0.609
96 | GGGCUAUCGUAGUUGCACATT against SLC17A5 | inactive: -0.354
97 | AGAAGAUGGUCAGUAUGGATT against ZNF669 | inactive: 0.175
98 | AGCACAUCGUGUCUAUCUATT against ANKK1 | inactive: -0.288
99 | CAAGUGCGAUAUCACCUUATT against IL4 | inactive: -0.192
100 | GAGUGGAAAAGACAAGGAUTT against S100P | inactive: -0.00831
101 | GCAUACAUCUCUCUCUCGATT against ZFP62 | inactive: -0.255
102 | AGAAGACAACUGCAGAACATT against AGRP | inactive: 0.206
103 | GCAACUCGCAUGCAACUAATT against SALL2 | inactive: 0.504
104 | CCUACUAACCAGAUUCAAATT against CLOCK | inactive: -0.338
105 | GUUACUACCUUUGCCGAAATT against MED12L | inactive: -0.0903
106 | CAAAGAUCCCUGACAAGCATT against MAPK8 | inactive: 0.316
107 | CAACAUUAGCAAAAUCUUATT against SOX6 | inactive: 0.0135
